# Data as given in patent publication US20220220099A1, “BENZAMIDE COMPOUND, AND HERBICIDE” (Nippon Soda Co., Ltd., priority 2019, published 2022).
# Some of these results come from one statement about several compounds together.
# How the values were obtained:
# Experiment in all cases: Test Example 2: spraying treatment on stems and leaves, herbicidal rate
# Format in all cases: in vivo
# Avena sativa = conditions: three weeks later
# Apera spica-venti = conditions: spray amount of 64 g, three weeks later
# Experimental: Emulsion for testing was prepared according to the preparation method described in Test Example 1.
# A 150 cm^2 pot was filled with soil, and seeds of Avena sativa, Lolium multiflorum and Apera spica-venti were sowed on the surface layer, and after the soil was covered lightly, the Avena sativa, Lolium multiflorum and Apera spica-venti were grown in a greenhouse. At the point in time when Avena sativa was grown to a plant height of 16 to 20 cm, Lolium multiflorum was grown to a plant height of 10 to 14 cm, and Apera spica-venti was grown to a plant height of 2 to 4 cm, the emulsion for testing was diluted in such a way as to have a predetermined amount of an active ingredient and was sprayed on the leaves and stems in a spray amount of water of 250 L per hectare with a small-sized atomizer.
# Three weeks later, the weight of a living weed above the ground was measured for each weed in the nontreated zone and in the treated zone to calculate a herbicidal rate by the following calculation formula.
# Herbicidal rate (%)=(weight of living weed above ground in nontreated zone−weight of living weed above ground in treated zone)/(weight of living weed above ground in nontreated zone)×100 […]
# Lolium multiflorum = conditions: spray amount of 64 g, three weeks later
Compound,"herbicidal activity (Avena sativa, follows Table 8) (Avena sativa; spray amount of 16 g) [%]","herbicidal activity (Avena sativa, follows Table 8) (Avena sativa; spray amount of 64 g) [%]","herbicidal activity (Apera spica-venti, follows Table 10) (Apera spica-venti) [%]","herbicidal activity (Lolium multiflorum, follows Table 9) (Lolium multiflorum) [%]"
O=C(Nc1nnnn1CC(F)(F)F)c1ccc(C(F)(F)F)c2c1CCCS2(=O)=O [c-5],≥ 80,≥ 80,,
O=C(Nc1nnnn1C1CC1)c1ccc(C(F)(F)F)c2c1CCCS2 [c-14],,≥ 80,≥ 80,≥ 80
O=C(Nc1nnnn1CC(F)F)c1ccc(C(F)(F)F)c2c1CCCS2 [c-2],,≥ 80,≥ 80,
COCCn1nnnc1NC(=O)c1ccc(C(F)(F)F)c2c1CCCS2 [c-16],,,≥ 80,≥ 80
COCCn1nnnc1NC(=O)c1ccc(C(F)(F)F)c2c1CCCS2(=O)=O [c-15],,≥ 80,≥ 80,≥ 80
O=C(Nc1nnnn1CC1CC1)c1ccc(C(F)(F)F)c2c1CCCS2(=O)=O [c-3],,≥ 80,,
O=C(Nc1nnnn1C1CC1)c1ccc(C(F)(F)F)c2c1CCCS2(=O)=O [c-13],,≥ 80,≥ 80,
O=C(Nc1nnnn1CC1CC1)c1ccc(C(F)(F)F)c2c1CCCS2 [c-4],,≥ 80,,
Cn1nnnc1NC(=O)c1ccc(C(F)(F)F)c2c1CCCS2(=O)=O [a-38],≥ 80,≥ 80,≥ 80,≥ 80
O=C(Nc1nnnn1CC(F)(F)F)c1ccc(C(F)(F)F)c2c1CCCS2 [c-6],≥ 80,≥ 80,≥ 80,≥ 80
